Experimental data: paper PMC8511105
These are yes or no findings as the source states them, for the method shown. In cells and extracts the contact can be indirect. Some binding calls cover weakened binding; strength is not graded here.

Protein sequences, listed by entry. Tags and fused reporters are not part of them.
UniProt Q8R4B8: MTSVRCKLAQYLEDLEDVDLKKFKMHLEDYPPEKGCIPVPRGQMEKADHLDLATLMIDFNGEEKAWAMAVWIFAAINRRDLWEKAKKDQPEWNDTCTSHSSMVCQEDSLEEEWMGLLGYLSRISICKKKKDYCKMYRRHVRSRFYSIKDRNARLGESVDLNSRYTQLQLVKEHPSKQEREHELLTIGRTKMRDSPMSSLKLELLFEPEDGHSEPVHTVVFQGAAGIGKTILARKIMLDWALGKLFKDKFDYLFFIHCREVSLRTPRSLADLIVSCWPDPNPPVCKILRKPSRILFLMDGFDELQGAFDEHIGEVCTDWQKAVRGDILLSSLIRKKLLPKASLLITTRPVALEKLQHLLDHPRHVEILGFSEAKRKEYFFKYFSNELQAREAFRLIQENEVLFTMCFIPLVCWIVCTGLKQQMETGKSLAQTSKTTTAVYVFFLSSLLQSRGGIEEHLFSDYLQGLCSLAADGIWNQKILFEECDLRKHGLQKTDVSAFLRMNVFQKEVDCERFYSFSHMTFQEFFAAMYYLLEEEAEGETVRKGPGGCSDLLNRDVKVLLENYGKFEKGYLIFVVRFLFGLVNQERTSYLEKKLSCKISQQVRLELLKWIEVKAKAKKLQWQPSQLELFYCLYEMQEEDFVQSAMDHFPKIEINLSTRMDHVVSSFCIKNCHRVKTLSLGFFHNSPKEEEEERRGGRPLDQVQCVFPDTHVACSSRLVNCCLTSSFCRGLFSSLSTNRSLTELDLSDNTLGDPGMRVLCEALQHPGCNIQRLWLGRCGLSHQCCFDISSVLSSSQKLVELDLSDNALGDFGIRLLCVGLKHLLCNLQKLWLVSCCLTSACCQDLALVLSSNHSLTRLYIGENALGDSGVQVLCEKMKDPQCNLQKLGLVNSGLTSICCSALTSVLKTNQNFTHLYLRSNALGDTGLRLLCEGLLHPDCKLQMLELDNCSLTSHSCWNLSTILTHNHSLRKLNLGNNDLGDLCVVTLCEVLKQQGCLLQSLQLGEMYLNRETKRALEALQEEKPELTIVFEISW

T1: Asc (mouse (endogenous in mouse cortex and primary microglia)) (UniProt Q9EPB4)
T1 sequence: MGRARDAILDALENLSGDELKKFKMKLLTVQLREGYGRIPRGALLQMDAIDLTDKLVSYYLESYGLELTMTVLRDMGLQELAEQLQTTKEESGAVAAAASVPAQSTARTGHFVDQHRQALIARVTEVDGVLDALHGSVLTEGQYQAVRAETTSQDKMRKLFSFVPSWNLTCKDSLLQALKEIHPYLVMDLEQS

T2: Asc (mouse (endogenous in mouse cortex and primary microglia)), Q9EPB4
T2 chain: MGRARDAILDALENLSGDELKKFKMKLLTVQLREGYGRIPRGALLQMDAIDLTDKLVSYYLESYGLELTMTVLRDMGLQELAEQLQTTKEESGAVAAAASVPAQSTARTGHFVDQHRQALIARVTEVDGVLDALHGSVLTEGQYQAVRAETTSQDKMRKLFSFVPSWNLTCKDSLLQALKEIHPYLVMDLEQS

B1: Phosphoglycerate mutase 5 (protein, UniProt Q8BX10 1-288)
chain: MAFRQALQLAACGLAGGSAAVLFSAVAVGKPRGGGDADTRATEPPAWTGARAGRGVWDTNWDRREPLSLINLKKRNVESGEDELTSRLDHYKAKATRHIFLIRHSQYHVDGSLEKDRTLTPLGREQAELTGLRLASLGLKFNKIVHSSMTRAVETTDIISKHLPGVSRVSTDLLREGAPIEPDPPVSHWKPEAVQYYEDGARIEAAFRNYIHRADARQEEDSYEIFICHANVIRYIVCRALQFPPEGWLRLSLNNGSITHLVIRPNGRVALRTLGDTGFMPPDKITRS
B2: caspase1 (protein, UniProt P29452 1-402)
chain: MADKILRAKRKQFINSVSIGTINGLLDELLEKRVLNQEEMDKIKLANITAMDKARDLCDHVSKKGPQASQIFITYICNEDCYLAGILELQSAPSAETFVATEDSKGGHPSSSETKEEQNKEDGTFPGLTGTLKFCPLEKAQKLWKENPSEIYPIMNTTTRTRLALIICNTEFQHLSPRVGAQVDLREMKLLLEDLGYTVKVKENLTALEMVKEVKEFAACPEHKTSDSTFLVFMSHGIQEGICGTTYSNEVSDILKVDTIFQMMNTLKCPSLKDKPKVIIIQACRGEKQGVVLLKDSVRDSEEDFLTDAIFEDDGIKKAHIEKDFIAFCSSTPDNVSWRHPVRGSLFIESLIKHMKEYAWSCDLEDIFRKVRFSFEQPEFRLQMPTADRVTLTKRFYLFPGH
B3: caspase8, O89110 1-480 (protein)
chain: MDFQSCLYAIAEELGSEDLAALKFLCLDYIPHKKQETIEDAQKLFLRLREKGMLEEGNLSFLKELLFHISRWDLLVNFLDCNREEMVRELRDPDNAQISPYRVMLFKLSEEVSELELRSFKFLLNNEIPKCKLEDDLSLLEIFVEMEKRTMLAENNLETLKSICDQVNKSLLGKIEDYERSSTERRMSLEGREELPPSVLDEMSLKMAELCDSPREQDSESRTSDKVYQMKNKPRGYCLIINNHDFSKAREDITQLRKMKDRKGTDCDKEALSKTFKELHFEIVSYDDCTANEIHEILEGYQSADHKNKDCFICCILSHGDKGVVYGTDGKEASIYDLTSYFTGSKCPSLSGKPKIFFIQACQGSNFQKGVPDEAGFEQQNHTLEVDSSSHKNYIPDEADFLLGMATVKNCVSYRDPVNGTWYIQSLCQSLRERCPQGDDILSILTGVNYDVSNKDDRRNKGKQMPQPTFTLRKKLFFPP

What was measured:
[1] = molecular target: Phosphoglycerate mutase 5 (mouse (endogenous in mouse cortex and primary microglia)) (UniProt Q8BX10); assay: cross-linking; detergent-insoluble crude pellet of primary microglia (LPS + ATP) resuspended in CHAPS buffer, 4 mM DSS for 30 min, Western blot for monomers, dimers and oligomers
[2] = molecular target: Nlrp3 (mouse (endogenous in mouse cortex and primary microglia)) (UniProt Q8R4B8); assay: co-IP; anti-Nlrp3 coupled to Dynabeads, lysate of cortical tissue (Pierce IP lysis buffer) of WT and Pgam5-/- mice, sham or 48 h after TBI, overnight at 4 °C; IgG as negative control; immunoblot
[3] = molecular target: T1, Asc (mouse (endogenous in mouse cortex and primary microglia)); assay: co-IP; anti-Asc coupled to Dynabeads, lysate of primary cortical microglia (WT, Pgam5-/- or Pgam5-shRNA, caspase8-shRNA) stimulated with LPS + ATP, overnight at 4 °C; IgG as negative control; immunoblot
[4] = molecular target: T2, Asc (mouse (endogenous in mouse cortex …)); assay: as above; settings: remark: other sources report otherwise

Row | Binder | binding [1] | binding [2] | binding [3] | binding [4]
1 | B1 | binds | binds | – | –
2 | B2 | – | binds | binds | –
3 | B3 | – | – | – | binds
